Test results as given in the supplement of paper PMC10849652.
Some of the results follow.

Amino acid sequences for entries named in this document (tags omitted). A change or cut given only in a name is not applied to a line headed by its entry.
UniProt Q9NQ34: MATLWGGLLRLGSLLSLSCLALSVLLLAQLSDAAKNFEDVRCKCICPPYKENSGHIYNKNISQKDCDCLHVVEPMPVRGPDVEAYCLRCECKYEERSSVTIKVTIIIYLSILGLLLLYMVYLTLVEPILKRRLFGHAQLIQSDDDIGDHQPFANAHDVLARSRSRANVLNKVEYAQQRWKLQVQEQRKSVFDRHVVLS
UniProt Q9BVT8: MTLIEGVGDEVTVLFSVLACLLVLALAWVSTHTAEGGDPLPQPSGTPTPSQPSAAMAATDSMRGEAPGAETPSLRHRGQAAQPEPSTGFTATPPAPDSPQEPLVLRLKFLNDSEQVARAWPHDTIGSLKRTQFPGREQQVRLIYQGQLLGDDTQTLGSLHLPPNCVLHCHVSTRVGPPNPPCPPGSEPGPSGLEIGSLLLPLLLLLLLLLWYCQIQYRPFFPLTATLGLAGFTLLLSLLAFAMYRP
UniProt O00206, whole entry, looked up: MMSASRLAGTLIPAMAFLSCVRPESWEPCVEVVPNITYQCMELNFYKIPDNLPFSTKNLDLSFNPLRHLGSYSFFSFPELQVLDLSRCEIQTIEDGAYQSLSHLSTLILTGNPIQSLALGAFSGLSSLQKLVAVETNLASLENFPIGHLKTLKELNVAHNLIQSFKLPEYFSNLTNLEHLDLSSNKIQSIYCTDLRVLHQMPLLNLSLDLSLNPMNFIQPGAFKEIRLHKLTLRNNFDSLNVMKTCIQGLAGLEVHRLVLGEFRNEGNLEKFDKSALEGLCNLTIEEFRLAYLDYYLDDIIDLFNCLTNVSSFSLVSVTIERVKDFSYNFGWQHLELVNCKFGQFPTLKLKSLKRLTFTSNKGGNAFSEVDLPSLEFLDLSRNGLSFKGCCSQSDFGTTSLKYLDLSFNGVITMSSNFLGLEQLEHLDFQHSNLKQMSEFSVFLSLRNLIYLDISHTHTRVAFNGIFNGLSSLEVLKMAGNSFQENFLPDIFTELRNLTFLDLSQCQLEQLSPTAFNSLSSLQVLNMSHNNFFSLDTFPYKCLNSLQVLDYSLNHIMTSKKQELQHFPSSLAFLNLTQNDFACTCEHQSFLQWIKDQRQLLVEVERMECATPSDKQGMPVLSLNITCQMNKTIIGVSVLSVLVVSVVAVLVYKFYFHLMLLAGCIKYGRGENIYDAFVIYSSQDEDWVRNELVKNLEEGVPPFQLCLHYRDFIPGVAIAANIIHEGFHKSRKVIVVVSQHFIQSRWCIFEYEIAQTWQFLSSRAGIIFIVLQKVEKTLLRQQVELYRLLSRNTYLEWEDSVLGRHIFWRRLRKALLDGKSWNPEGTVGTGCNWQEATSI
UniProt Q9BZW5, whole entry, looked up: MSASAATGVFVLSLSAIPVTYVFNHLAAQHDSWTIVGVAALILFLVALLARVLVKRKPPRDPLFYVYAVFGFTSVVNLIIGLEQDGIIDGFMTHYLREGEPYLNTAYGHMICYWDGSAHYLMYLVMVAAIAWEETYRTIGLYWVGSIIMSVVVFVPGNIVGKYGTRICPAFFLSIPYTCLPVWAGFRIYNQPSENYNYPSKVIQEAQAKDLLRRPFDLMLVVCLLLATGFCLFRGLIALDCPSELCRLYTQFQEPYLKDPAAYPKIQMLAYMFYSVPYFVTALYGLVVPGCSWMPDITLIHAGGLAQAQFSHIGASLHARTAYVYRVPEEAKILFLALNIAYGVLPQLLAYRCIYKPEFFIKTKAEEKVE
UniProt Q9Y519: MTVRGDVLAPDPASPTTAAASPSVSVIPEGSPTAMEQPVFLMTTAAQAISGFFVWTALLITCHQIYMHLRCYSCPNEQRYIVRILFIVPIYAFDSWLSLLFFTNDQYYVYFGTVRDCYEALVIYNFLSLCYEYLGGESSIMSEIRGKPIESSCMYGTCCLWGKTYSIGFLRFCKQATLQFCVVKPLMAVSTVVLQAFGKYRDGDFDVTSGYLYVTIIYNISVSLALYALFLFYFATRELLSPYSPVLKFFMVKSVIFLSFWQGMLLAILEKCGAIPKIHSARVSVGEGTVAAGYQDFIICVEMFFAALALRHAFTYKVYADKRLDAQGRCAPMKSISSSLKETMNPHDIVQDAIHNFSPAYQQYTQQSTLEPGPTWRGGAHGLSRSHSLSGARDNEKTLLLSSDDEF
UniProt Q8IUX1: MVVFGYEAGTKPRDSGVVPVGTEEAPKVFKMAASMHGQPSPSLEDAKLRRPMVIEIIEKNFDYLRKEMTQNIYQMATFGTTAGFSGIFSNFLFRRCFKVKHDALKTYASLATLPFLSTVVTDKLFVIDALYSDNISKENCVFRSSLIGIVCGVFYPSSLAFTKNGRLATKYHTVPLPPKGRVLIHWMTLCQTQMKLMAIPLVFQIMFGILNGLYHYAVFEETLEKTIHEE
UniProt Q86XT9, whole entry, looked up: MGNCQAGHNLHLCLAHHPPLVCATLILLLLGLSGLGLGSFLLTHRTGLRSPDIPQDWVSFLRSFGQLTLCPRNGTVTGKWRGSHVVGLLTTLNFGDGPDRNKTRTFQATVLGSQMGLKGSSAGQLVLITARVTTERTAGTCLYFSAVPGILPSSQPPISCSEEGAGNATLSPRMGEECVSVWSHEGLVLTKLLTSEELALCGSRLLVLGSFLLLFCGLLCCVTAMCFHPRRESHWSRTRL
UniProt O94886: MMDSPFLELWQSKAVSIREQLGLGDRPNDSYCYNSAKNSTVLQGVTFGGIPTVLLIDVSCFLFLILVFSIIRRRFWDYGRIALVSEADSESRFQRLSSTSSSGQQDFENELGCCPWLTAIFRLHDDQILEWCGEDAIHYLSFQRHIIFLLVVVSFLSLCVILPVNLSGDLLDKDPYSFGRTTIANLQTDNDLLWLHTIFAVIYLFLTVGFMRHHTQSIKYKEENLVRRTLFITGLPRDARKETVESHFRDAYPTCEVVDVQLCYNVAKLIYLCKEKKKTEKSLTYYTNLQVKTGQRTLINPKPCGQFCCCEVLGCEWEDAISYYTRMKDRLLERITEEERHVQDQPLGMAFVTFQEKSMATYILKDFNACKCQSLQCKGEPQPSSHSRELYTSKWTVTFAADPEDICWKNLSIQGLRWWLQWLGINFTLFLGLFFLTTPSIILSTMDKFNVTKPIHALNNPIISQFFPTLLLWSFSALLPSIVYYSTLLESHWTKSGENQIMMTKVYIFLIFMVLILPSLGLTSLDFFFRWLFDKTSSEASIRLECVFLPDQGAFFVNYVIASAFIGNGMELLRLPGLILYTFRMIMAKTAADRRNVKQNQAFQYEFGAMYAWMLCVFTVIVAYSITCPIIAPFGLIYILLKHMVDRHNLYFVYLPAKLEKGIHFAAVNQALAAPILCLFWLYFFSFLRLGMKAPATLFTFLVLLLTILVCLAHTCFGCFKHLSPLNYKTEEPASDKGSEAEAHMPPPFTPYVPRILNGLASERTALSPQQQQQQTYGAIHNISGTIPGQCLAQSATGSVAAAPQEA
UniProt Q9P0S9: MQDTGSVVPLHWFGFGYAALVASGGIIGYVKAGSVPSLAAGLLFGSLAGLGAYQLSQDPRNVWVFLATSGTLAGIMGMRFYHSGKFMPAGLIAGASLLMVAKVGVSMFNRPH
UniProt Q5BJH2: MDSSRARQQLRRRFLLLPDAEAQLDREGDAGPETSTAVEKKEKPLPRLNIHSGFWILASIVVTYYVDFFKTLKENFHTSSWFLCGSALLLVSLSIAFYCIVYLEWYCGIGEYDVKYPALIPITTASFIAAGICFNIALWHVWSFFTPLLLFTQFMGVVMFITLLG
UniProt P19438, whole entry, looked up: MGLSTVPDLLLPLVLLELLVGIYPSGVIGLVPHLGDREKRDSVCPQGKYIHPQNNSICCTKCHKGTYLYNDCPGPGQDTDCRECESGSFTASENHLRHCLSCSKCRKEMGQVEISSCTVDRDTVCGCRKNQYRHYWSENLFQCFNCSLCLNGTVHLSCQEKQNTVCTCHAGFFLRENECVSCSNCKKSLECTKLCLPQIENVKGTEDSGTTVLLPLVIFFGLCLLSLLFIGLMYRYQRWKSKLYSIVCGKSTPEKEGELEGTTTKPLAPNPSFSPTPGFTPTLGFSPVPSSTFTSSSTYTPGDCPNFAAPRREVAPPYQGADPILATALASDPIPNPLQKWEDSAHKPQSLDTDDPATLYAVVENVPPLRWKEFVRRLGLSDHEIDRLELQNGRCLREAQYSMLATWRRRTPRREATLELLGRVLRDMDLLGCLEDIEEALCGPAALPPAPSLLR
UniProt Q9NVA4: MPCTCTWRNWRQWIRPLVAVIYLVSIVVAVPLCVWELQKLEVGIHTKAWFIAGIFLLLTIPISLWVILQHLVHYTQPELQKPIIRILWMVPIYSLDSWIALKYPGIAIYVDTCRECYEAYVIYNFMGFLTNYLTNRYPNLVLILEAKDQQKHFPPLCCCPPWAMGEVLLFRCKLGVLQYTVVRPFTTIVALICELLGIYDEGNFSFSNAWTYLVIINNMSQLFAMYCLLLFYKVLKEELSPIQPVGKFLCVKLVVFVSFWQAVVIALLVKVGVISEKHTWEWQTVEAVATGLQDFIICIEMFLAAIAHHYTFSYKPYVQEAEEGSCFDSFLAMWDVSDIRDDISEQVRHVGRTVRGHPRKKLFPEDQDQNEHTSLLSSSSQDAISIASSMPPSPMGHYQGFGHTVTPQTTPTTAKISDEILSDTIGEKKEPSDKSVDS
UniProt Q7Z7N9: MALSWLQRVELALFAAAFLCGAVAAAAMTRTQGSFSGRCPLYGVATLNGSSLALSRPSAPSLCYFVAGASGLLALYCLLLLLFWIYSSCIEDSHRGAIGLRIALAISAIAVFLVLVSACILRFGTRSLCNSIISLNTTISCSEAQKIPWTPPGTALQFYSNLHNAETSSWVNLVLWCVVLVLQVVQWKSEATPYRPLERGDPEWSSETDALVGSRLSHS
UniProt Q5U3C3: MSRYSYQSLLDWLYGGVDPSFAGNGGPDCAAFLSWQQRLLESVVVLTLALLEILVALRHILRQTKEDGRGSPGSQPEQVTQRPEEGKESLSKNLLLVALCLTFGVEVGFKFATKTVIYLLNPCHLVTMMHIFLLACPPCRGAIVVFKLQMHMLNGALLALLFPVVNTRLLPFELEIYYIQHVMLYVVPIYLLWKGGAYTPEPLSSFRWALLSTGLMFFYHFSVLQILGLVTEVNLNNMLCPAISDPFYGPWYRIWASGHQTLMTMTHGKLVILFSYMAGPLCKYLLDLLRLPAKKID
UniProt Q9ULS5: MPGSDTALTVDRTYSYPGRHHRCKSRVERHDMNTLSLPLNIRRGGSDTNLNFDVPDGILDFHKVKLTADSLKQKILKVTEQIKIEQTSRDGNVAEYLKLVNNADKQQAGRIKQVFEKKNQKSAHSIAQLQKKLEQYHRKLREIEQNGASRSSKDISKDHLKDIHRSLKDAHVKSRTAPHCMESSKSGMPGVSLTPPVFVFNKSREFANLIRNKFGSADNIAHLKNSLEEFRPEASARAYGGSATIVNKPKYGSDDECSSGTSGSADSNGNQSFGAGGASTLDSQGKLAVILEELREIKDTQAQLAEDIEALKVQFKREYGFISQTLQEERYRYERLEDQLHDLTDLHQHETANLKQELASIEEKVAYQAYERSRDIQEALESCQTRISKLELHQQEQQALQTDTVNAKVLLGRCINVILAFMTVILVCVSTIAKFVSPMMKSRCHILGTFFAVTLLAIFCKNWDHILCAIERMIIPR
UniProt Q96DC7: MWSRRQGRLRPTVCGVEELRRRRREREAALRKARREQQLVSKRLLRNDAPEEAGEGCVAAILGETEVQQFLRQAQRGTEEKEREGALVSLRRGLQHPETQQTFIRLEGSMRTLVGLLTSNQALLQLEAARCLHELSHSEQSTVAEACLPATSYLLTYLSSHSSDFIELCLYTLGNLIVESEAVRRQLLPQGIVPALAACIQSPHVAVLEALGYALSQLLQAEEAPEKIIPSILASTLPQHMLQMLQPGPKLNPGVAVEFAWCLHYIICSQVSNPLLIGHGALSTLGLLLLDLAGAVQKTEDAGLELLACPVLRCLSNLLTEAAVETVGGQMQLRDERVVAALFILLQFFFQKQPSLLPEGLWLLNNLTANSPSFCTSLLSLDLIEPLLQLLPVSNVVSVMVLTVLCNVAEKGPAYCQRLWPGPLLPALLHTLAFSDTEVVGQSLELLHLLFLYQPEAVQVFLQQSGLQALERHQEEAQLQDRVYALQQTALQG
UniProt Q9H6X4: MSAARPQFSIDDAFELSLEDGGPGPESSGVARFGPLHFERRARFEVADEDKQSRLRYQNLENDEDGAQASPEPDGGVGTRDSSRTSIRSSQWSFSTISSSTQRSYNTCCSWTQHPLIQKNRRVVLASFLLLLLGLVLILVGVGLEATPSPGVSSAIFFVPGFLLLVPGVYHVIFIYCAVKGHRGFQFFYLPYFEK
UniProt Q9Y2Y6: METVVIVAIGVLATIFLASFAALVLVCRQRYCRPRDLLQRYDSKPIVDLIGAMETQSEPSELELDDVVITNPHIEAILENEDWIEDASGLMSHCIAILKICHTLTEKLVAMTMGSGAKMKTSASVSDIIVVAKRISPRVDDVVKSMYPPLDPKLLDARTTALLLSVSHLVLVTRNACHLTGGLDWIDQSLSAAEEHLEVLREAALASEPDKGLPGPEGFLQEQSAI

Key:
Experiment in all cases: log2 fold change, soluble protein after heating vs DMSO (PISA); higher = thermal stabilisation; K562 cells, 10 uM, 30 min; active = over 0.2 and 3.5 SD of the protein, either way, in both replicates (recomputed)
[1] = compound: CC1=C(C=C(C=C1)NC(=O)C2=CC(=CC=C2)C(C)(C)C#N)NC3=CC4=C(C=C3)N=CN(C4=O)C
How it was run: (§1)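 Soluble protein was defined as the supernatant after 21,000xg for 90 min. It came from K562 cells at 2×10^6 cells/mL given 10 μM compound for 30 min, heated in aliquots for 3 min across 48°C-58°C, pooled, and extracted in PBS with 0.5% NP-40 at 4°C, and was quantified by TMTpro 16plex LC-MS/MS with equalised channel sums. Thermal stability against control samples, from duplicates, is reported as log2 fold change.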

[2] = compound: CC1=C(C=C(C=C1)NC(=O)C2=CC(=CC=C2)N(C)C)NC(=O)C3=CC=C(C=C3)O
How it was run: as §1

[3] = compound: CC1=CC=C(C=C1)SC2=C3C=C(SC3=CN=C2)C(=O)N
How it was run: as §1

[4] = compound: CC1=NC(=CC=C1)C2=C(N=C(N2)C(C)(C)C)C3=CC4=NC=CN=C4C=C3
How it was run: as §1

Nexturastat A = compound: CCCCN(Cc1ccc(C(=O)NO)cc1)C(=O)Nc1ccccc1 [Nexturastat A]
How it was run: as §1

vemurafenib = compound: CCCS(=O)(=O)Nc1ccc(F)c(C(=O)c2c[nH]c3ncc(-c4ccc(Cl)cc4)cc23)c1F [vemurafenib]
How it was run: as §1

[5] = compound: CCCS(=O)(=O)Nc1ccc(F)c(C(=O)c2c[nH]c3ncc(Cl)cc23)c1F
How it was run: as §1

[6] = compound: CCCc1cc(C)[nH]c(=O)c1CNC(=O)c1cc(-c2ccnc(N3CCN(C)CC3)c2)cc2c1cnn2C(C)C
How it was run: as §1

givinostat = compound: CCN(CC)Cc1ccc2cc(COC(=O)Nc3ccc(C(=O)NO)cc3)ccc2c1 [givinostat]
How it was run: as §1

barasertib = compound: CCN(CCCOc1ccc2c(Nc3cc(CC(=O)Nc4cccc(F)c4)[nH]n3)ncnc2c1)CCOP(=O)(O)O [barasertib]
How it was run: as §1

[7] = compound: CC[C@@H]1C(=O)N(C)c2cnc(Nc3ccc(C(=O)NC4CCN(C)CC4)cc3OC)nc2N1C1CCCC1
How it was run: as §1

volasertib = compound: CC[C@@H]1C(=O)N(C)c2cnc(Nc3ccc(C(=O)N[C@H]4CC[C@H](N5CCN(CC6CC6)CC5)CC4)cc3OC)nc2N1C(C)C [volasertib]
How it was run: as §1

[8] = compound: CC[C@H](C)N1C=C(C2=C(C=C(C=C21)C3=CN=C(C=C3)N4CCNCC4)C(=O)NCC5=C(C=C(NC5=O)C)C)C
How it was run: as §1

epoxomicin = compound: CC[C@H](C)[C@@H](C(=O)N[C@@H]([C@@H](C)O)C(=O)N[C@@H](CC(C)C)C(=O)[C@]1(CO1)C)NC(=O)[C@H]([C@@H](C)CC)N(C)C(=O)C [epoxomicin]
How it was run: as §1

[9] = compound: CCn1cc(-c2ccnc3[nH]c(-c4cccc(CN(C)C)c4)cc23)c(-c2ccc(NC(=O)N(C)C)cc2)n1
How it was run: as §1

[10] = compound: CN(C)CC(=O)Nc1ccc2[nH]c(=O)c3ccccc3c2c1
How it was run: as §1

[11] = compound: CN1CCC(CNc2ccc3ncc(-c4cccc(OC(F)(F)F)c4)n3n2)CC1
How it was run: as §1

[12] = compound: CCn1c(C(=O)N(C2CC2)C2CC2)cc2c3c(ncn3C)c(Nc3cc(C)n(C)n3)nc21
How it was run: as §1

rosiglitazone = compound: CN(CCOC1=CC=C(C=C1)C[C@H]2C(=O)NC(=O)S2)C3=CC=CC=N3 (racemic) [rosiglitazone]
How it was run: as §1

[13] = compound: CN1C2=C(C3=C1C(=O)N(N=C3)CC4=CC(=CC=C4)N)SC(=C2)S(=O)C
How it was run: as §1

Measured: log2 fold change

TMEM9B (UniProt Q9NQ34)
inactive: [1] -0.068 | [2] 0.042 | [3] 0.105 | [4] 0.01 | Nexturastat A -0.055 | vemurafenib 0.013 | [5] 0.064 | [6] 0.006 | givinostat -0.023 | barasertib -0.015 | [7] 0.035 | volasertib -0.192 | [8] -0.011 | epoxomicin 0.109 | [9] 0.049 | [10] -0.023 | [11] -0.054

TMUB1 (UniProt Q9BVT8)
inactive: [1] -0.177 | [2] 0.044 | [3] 0.136 | Nexturastat A -0.019 | vemurafenib -0.066 | [5] 0.016 | [6] 0.014 | givinostat -0.042 | barasertib -0.018 | [7] 0.003 | volasertib -0.151 | [8] -0.047 | epoxomicin 0.205 | [12] -0.054 | [9] 0.039 | [10] 0.043 | rosiglitazone 0.118 | [13] 0.052 | [11] 0.033

TLR4 (UniProt O00206)
inactive: [1] -0.151 | [2] -0.055 | [3] -0.085 | vemurafenib -0.134 | [5] -0.193 | givinostat 0.268 | barasertib 0.011 | [7] 0.122 | volasertib 0.001 | [12] -0.2 | [9] 0.051 | [10] -0.046 | rosiglitazone -0.054 | [13] 0.014 | [11] -0.179

TM6SF1 (UniProt Q9BZW5)
inactive: [1] -0.03 | [2] -0.006 | [3] -0.03 | [4] -0.074 | Nexturastat A 0.102 | vemurafenib -0.028 | [5] 0.031 | [6] -0.033 | givinostat -0.021 | volasertib 0.052 | [8] -0.046 | epoxomicin 0.052 | [12] 0.013 | [9] 0 | [10] 0.011 | [13] 0.043 | [11] 0.067

TMEM184B (UniProt Q9Y519)
inactive: [1] -0.076 | [3] -0.041 | [5] 0.057 | [6] 0.05 | givinostat -0.048 | barasertib -0.063 | volasertib 0.017 | [8] -0.074 | [12] 0.015 | rosiglitazone 0.013

TMEM126B (UniProt Q8IUX1)
inactive: [1] -0.042 | [2] 0.032 | [4] 0.029 | Nexturastat A 0.021 | vemurafenib 0.1 | [6] 0.011 | givinostat 0.025 | barasertib 0.046 | [7] -0.038 | [8] 0.018 | epoxomicin -0.025 | [12] 0 | [9] -0.006 | [10] -0.008 | rosiglitazone -0.03 | [13] 0.069 | [11] -0.12

TMEM201 (UniProt Q5SNT2)
inactive: [1] -0.15 | [2] 0.05 | Nexturastat A 0.026 | [6] 0.225 | givinostat 0.077 | barasertib -0.024 | [8] 0.061 | epoxomicin 0.002 | [12] -0.073 | [9] 0.004 | rosiglitazone 0.083 | [13] 0.148 | [11] -0.135

TMEM192 (UniProt Q8IY95)
inactive: [1] 0.013 | [2] -0.032 | [3] 0.026 | [4] -0.028 | Nexturastat A 0.004 | vemurafenib -0.006 | [5] -0.026 | [6] -0.014 | givinostat -0.038 | barasertib -0.005 | [7] -0.139 | volasertib -0.061 | [8] -0.025 | epoxomicin -0.04 | [9] 0.046 | [10] -0.024 | [13] 0.025
active: [11] -0.408

TMEM219 (UniProt Q86XT9)
inactive: [1] 0.021 | [3] 0.02 | Nexturastat A 0.311 | vemurafenib 0.172 | [5] -0.107 | givinostat -0.029 | barasertib -0.187 | volasertib -0.111 | [8] 0.033 | epoxomicin 0.035 | [9] 0.037 | [10] 0.094 | [13] -0.085 | [11] -0.029

TMEM63A (UniProt O94886)
inactive: [1] 0.066 | [3] -0.082 | [4] 0.023 | Nexturastat A 0.002 | vemurafenib 0 | [5] -0.023 | [6] 0.2 | givinostat 0.011 | barasertib 0.075 | [7] -0.041 | volasertib 0.115 | [8] -0.064 | epoxomicin -0.023 | [12] 0.036 | [9] 0.052 | [10] -0.031 | rosiglitazone -0.073 | [13] -0.024 | [11] -0.062

TM7SF3 (UniProt Q9NS93)
inactive: [1] -0.033 | [2] -0.054 | [3] 0.005 | [4] 0.017 | [5] -0.019 | [6] -0.027 | givinostat 0.06 | barasertib 0.045 | [7] -0.136 | volasertib -0.178 | [8] -0.074 | [13] 0.025

TMEM14C (UniProt Q9P0S9)
inactive: [1] -0.021 | [2] 0.098 | [3] -0.017 | [4] 0.072 | vemurafenib -0.041 | [5] 0.027 | [6] -0.19 | givinostat 0.043 | barasertib -0.058 | [7] 0.021 | volasertib 0.16 | [8] -0.033 | [12] 0.098 | [9] -0.06 | [10] 0.105 | rosiglitazone -0.015 | [13] -0.118 | [11] 0.021

TMEM128 (UniProt Q5BJH2)
inactive: [1] -0.023 | [2] -0.006 | [3] -0.005 | [4] -0.054 | Nexturastat A 0.021 | vemurafenib -0.279 | [5] 0.052 | givinostat 0.249 | barasertib -0.004 | [7] -0.076 | volasertib -0.005 | [8] 0.015 | epoxomicin 0.003 | [10] 0.149 | [13] -0.033

TNFRSF1A (UniProt P19438)
inactive: [1] 0.039 | [3] -0.146 | Nexturastat A 0.244 | [5] -0.141 | givinostat -0.023 | volasertib 0.103 | epoxomicin 0.023 | [12] 0.014 | [9] -0.127 | [13] 0.227 | [11] -0.381

TMEM184C (UniProt Q9NVA4)
inactive: [1] -0.07 | [2] 0.028 | [4] 0.028 | Nexturastat A -0.02 | vemurafenib 0.024 | [6] -0.028 | barasertib 0.055 | [7] -0.03 | [8] 0.033 | epoxomicin 0.087 | [9] 0.08 | [10] -0.013 | [13] -0.237
active: [11] -0.492

TMEM179B (UniProt Q7Z7N9)
inactive: [1] -0.233 | [2] -0.003 | [3] 0.011 | [4] 0.027 | Nexturastat A 0.378 | [5] 0.053 | [6] -0.021 | givinostat -0.118 | barasertib 0.045 | [7] 0.05 | volasertib 0.052 | [8] 0.029 | [9] 0.039 | [11] -0.128
active: epoxomicin -0.44

TMEM164 (UniProt Q5U3C3)
inactive: [1] 0.288 | [3] 0.05 | [4] -0.047 | Nexturastat A -0.142 | vemurafenib -0.083 | [5] 0.078 | [6] -0.305 | givinostat -0.038 | barasertib -0.095 | [7] -0.01 | volasertib -0.145 | [8] -0.01 | epoxomicin 0.082 | [9] -0.053 | [10] 0.07 | [13] -0.001 | [11] -0.021

TMCC3 (UniProt Q9ULS5)
inactive: [1] 0.026 | [2] -0.03 | [6] 0.061 | barasertib 0.079 | [7] 0.119 | [8] 0.004 | rosiglitazone -0.001

TMCO6 isoform 2 (UniProt Q96DC7)
inactive: givinostat 0.095 | [12] -0.309 | [9] 0.173 | [13] -0.049 | [11] 0.159

TMEM134 (UniProt Q9H6X4)
inactive: [2] 0.126 | [4] -0.003 | Nexturastat A -0.039 | [6] -0.045 | givinostat 0.083 | barasertib -0.026 | epoxomicin -0.062 | [12] -0.042 | [9] 0.157 | rosiglitazone 0.226 | [11] -0.054

TMEM98 (UniProt Q9Y2Y6)
inactive: [2] -0.324 | [3] -0.162 | [5] -0.001 | [6] 0.15 | barasertib -0.155 | volasertib -0.226 | [8] -0.128 | rosiglitazone -0.081

TMEM129
inactive: [3] -0.217 | [5] 0.044 | volasertib -0.137 | [8] 0.074 | [13] -0.076

Random excerpt: 2 records from the list.
TM6SF1 (UniProt Q9BZW5)
inactive: [1] -0.03 | [2] -0.006 | [3] -0.03 | [4] -0.074 | Nexturastat A 0.102 | vemurafenib -0.028 | [5] 0.031 | [6] -0.033 | givinostat -0.021 | volasertib 0.052 | [8] -0.046 | epoxomicin 0.052 | [12] 0.013 | [9] 0 | [10] 0.011 | [13] 0.043 | [11] 0.067

TLR4 (UniProt O00206)
inactive: [1] -0.151 | [2] -0.055 | [3] -0.085 | vemurafenib -0.134 | [5] -0.193 | givinostat 0.268 | barasertib 0.011 | [7] 0.122 | volasertib 0.001 | [12] -0.2 | [9] 0.051 | [10] -0.046 | rosiglitazone -0.054 | [13] 0.014 | [11] -0.179
